Source: patent US20110300171A1
No constants are given. Whether binding was seen depends on the method and setting. Some binding calls cover weakened binding; strength is not graded here.

Sequences of proteins named here, by UniProt entry; tags and fusion partners are left off. Residues count along the entry.
UniProt P08603, residues 19-1231: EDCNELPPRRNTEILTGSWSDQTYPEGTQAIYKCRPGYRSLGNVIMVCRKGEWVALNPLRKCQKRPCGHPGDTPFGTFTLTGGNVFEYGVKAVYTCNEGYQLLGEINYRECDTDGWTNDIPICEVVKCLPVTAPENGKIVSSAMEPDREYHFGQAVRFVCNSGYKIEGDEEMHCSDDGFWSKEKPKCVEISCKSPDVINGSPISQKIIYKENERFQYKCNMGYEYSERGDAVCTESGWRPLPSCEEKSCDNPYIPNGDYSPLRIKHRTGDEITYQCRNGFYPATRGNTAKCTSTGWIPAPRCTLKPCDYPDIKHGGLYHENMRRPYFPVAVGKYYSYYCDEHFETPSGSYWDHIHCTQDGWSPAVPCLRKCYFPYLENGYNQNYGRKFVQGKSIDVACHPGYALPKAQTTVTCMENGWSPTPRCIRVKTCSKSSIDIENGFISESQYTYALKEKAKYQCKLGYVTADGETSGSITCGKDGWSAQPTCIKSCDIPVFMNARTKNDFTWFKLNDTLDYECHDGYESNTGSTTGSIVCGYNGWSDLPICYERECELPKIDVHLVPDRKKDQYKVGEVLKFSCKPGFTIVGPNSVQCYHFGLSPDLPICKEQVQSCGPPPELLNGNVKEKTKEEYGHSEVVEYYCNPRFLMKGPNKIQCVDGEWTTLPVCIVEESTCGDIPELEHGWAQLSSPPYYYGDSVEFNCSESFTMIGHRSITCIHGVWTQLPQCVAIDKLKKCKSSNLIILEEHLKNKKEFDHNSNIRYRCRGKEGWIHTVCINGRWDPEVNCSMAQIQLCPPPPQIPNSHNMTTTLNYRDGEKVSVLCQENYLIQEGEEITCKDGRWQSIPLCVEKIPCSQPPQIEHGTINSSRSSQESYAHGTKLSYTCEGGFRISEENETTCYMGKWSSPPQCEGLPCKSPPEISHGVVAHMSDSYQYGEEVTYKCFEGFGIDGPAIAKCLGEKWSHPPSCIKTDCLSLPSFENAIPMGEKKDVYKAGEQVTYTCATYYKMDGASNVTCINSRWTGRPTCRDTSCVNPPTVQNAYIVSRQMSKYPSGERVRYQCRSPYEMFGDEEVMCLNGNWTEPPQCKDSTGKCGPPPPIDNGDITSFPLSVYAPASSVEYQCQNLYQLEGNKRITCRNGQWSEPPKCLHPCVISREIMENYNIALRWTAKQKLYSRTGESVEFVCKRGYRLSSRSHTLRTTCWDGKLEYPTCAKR
UniProt P26022, residues 18-381: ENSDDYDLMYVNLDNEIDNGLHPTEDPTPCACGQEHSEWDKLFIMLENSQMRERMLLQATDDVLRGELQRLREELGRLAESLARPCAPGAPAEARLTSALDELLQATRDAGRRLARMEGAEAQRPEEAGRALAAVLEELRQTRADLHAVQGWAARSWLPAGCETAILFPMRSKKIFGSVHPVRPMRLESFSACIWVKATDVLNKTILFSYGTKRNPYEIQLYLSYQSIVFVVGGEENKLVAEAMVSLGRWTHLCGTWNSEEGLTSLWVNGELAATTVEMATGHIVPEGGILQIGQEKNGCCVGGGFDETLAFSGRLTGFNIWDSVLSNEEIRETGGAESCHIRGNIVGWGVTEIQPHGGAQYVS

Molecular target: human factor H (human) (UniProt P08603)
Test: competition in plate binding assay; bPTX3 varied against coated NMB1870 or NMB0667 (FIGS. 4 and 5)

## bPTX3 (from UniProt P26022 18-381) (ligand)
  binding: binds
